PubChem BioAssay AID1508588, Peter MacCallum Cancer Centre – 2020
Screen: 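Knock-downs boosting vemurafenib effects on melanoma cell growth or lactate release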 (primary screen). System: human WM266.4 melanoma cells (BRAF V600 mutant). Knock-down reagent: siRNA pool against human genes, 40 nM. Time to read-out: 96 h from transfection to read-out. Challenge: vemurafenib 300 nM (about IC25), added 48 h after transfection, for 48 h; comparison arm got DMSO vehicle only. Measurement: 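Ratios to non-targeting siRNA for cell gain, counted as DAPI nuclei after minus before drug and averaged over two replicates, and for absorbance-read medium lactate per cell; both binned into fold-change classes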. Reading the numbers: cell gain with vemurafenib: higher = more cell gain than with non-targeting siRNA; lactate per cell with vemurafenib: higher = more lactate made per cell. Hit rule: 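a knock-down counts as enhancing when its fold-change classes with vehicle and with vemurafenib, taken together, show a stronger drug effect on cell gain or lactate per cell; exact class pairs not stated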. Calls: active = enhances vemurafenib effect; inactive = no enhancement seen.
The whole screen tested about 18,000 reagents; shown is a random part of them. 790 of them (4.4%) were called active. 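Calls rest on a combination of fold-change classes in drug and vehicle arms, not all shown here.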 Reagent sequences are not shown.

no.	gene knocked down	cell gain with vemurafenib	lactate per cell with vemurafenib	outcome
1	HSF2 (GeneID 3298)	0.79	0.92	inactive
2	SP1 (GeneID 6667)	0.1	1.95	inactive
3	IK (GeneID 3550)	-0.13	3.49	inactive
4	EIF4EBP3 (GeneID 8637)	0.43	0.78	inactive
5	SLC2A10 (GeneID 81031)	0.47	0.97	inactive
6	AMY2B (GeneID 280)	0.74	0.62	inactive
7	PAXBP1 (GeneID 94104)	0.65	0.72	inactive
8	SLC12A2 (GeneID 6558)	0.61	0.88	inactive
9	CIART (GeneID 148523)	0.22	0.92	inactive
10	DR1 (GeneID 1810)	0.98	0.99	inactive
11	ZNF397 (GeneID 84307)	0.79	0.1	active
12	ITM2A (GeneID 9452)	0.55	1.52	inactive
13	PXT1 (GeneID 222659)	0.55	1.02	inactive
14	FBXL4 (GeneID 26235)	0.83	0.77	inactive
15	PHKB (GeneID 5257)	0.52	1.18	inactive
16	AFAP1 (GeneID 60312)	0.32	0.78	inactive
17	CUL2 (GeneID 8453)	0.06	0.66	active
18	ACTG2 (GeneID 72)	0.43	0.94	inactive
19	CAVIN3 (GeneID 112464)	1.13	0.71	inactive
20	LILRB1 (GeneID 10859)	0.43	0.93	inactive
21	OR2T29 (GeneID 343563)	0.46	0.73	inactive
22	KMT2A (GeneID 4297)	1.14	0.68	inactive
23	GMCL1 (GeneID 64395)	0.22	2.4	inactive
24	CALHM5 (GeneID 254228)	0.68	0.86	inactive
25	CPD (GeneID 1362)	0.37	1.21	inactive
26	RABGEF1 (GeneID 27342)	1.32	0.77	inactive
27	PBLD (GeneID 64081)	1.2	1.04	inactive
28	FAM110D (GeneID 79927)	0.42	1.49	inactive
29	FAM170A (GeneID 340069)	0.89	0.78	inactive
30	USP17L2 (GeneID 377630)	0.65	0.98	inactive
31	ATP2A2 (GeneID 488)	0.86	0.78	inactive
32	PLEKHG4B (GeneID 153478)	0.64	0.71	inactive
33	TMEM82 (GeneID 388595)	0.78	0.65	inactive

8 entries already listed, sorted by “lactate per cell with vemurafenib”, high to low.
gene knocked down	cell gain with vemurafenib	lactate per cell with vemurafenib	outcome
GMCL1 (GeneID 64395)	0.22	2.4	inactive
FAM110D (GeneID 79927)	0.42	1.49	inactive
CPD (GeneID 1362)	0.37	1.21	inactive
PBLD (GeneID 64081)	1.2	1.04	inactive
CALHM5 (GeneID 254228)	0.68	0.86	inactive
FAM170A (GeneID 340069)	0.89	0.78	inactive
RABGEF1 (GeneID 27342)	1.32	0.77	inactive
KMT2A (GeneID 4297)	1.14	0.68	inactive

Continued:
no.	gene knocked down	cell gain with vemurafenib	lactate per cell with vemurafenib	outcome
34	ZFP90 (GeneID 146198)	0.8	0.46	inactive
35	EIF1 (GeneID 10209)	0.8	0.96	inactive
36	IZUMO1R (GeneID 390243)	0.83	0.44	inactive
37	S100A12 (GeneID 6283)	0.17	0.69	inactive
38	SREK1IP1 (GeneID 285672)	0.63	0.94	inactive
39	NOX4 (GeneID 50507)	0.55	0.48	active
40	GPR20 (GeneID 2843)	0.38	1.02	inactive
41	CACNG5 (GeneID 27091)	0.52	1.13	inactive
42	ASPG (GeneID 374569)	0.79	0.78	inactive
43	ZDHHC12 (GeneID 84885)	0.34	0.85	inactive
44	CDRT15 (GeneID 146822)	0.83	0.47	inactive
45	SKIC2 (GeneID 6499)	0.38	1.17	inactive
46	YBX3 (GeneID 8531)	0.19	1.16	inactive
47	CXCL1 (GeneID 2919)	0.68	1.06	inactive
48	CNGB3 (GeneID 54714)	1.12	0.4	inactive
49	SIT1 (GeneID 27240)	1.05	1.15	inactive
50	ADAMTS2 (GeneID 9509)	0.51	0.92	inactive
51	SPN (GeneID 6693)	0.56	0.97	inactive
52	VWA5B1 (GeneID 127731)	1.56	0.77	inactive
53	CLDN19 (GeneID 149461)	1.32	0.7	inactive
54	TNIP3 (GeneID 79931)	0.48	0.27	inactive
55	CCDC112 (GeneID 153733)	0.57	1.47	inactive
56	CREB5 (GeneID 9586)	1.04	0.97	inactive
57	ZNF571 (GeneID 51276)	0.62	0.26	inactive
